For the data set, the system named is HEp-2 cells. The settings on record: read-out: HEp-2 CC50; uninfected HEp-2 cells, viability reduced by 50%, MTS.

Bounds are passed on as bounds.

The values that follow come from article PMC9643853, “Synthesis and evaluation of 3-alkynyl-5-aryl-7-aza-indoles as broad-spectrum antiviral agents” (Frontiers in Chemistry, 2022).

As for `Cc1ccc(CCCO)c(NCc2ccc3nc(NCCCN4CCOCC4)n(Cc4nc(C)ccc4O)c3c2)c1` [TMC353121, reference compound], the half-maximal cytotoxic concentration (CC50) is over 10 µM.

By CC50 is commonly meant the concentration that lowers cell viability or growth by half.
